# The list shows a part of the results.
# B1: Mincle (Bos taurus) (protein)
# chain: MNSSTSPASQTERRCFSFQLFSWAIAGTSILLLSACFITRCVVTYSIFQLCDEKKFQPPGDSMELSCYNDGSGSVKNCCPLKWFHFQSSCYLFSPDTMSWRASLKNCSSMGAHLVVINTQEEQEFLYYTKPRKKEFYIGLTDQVTEGQWQWVDGTPFTKSLSFWDAGEPNNLVIVEDCATIRDSSNPRQNWNDVPCFFNMFRVCEMPERKI
# Key:
# Test in all cases: glycan array binding signal (z-score within array); higher = stronger binding
# Details in all cases: glycan notation: IUPAC condensed, linker removed
# [1] = target: Neu5Ac(a2-3)GalNAc(b1-4)GlcNAc
# In short: (§1)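 Negative Z-scores can be read as non-binding. The Z-score is calculated within each array and then averaged across arrays of one protein sequence at different concentrations or buffers and across linkers. Arrays, 3228 in all, were curated from the Consortium for Functional Glycomics database and kept only where the protein sequence was available.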
# [2] = target: Neu5Ac(a2-3)[GalNAc(b1-4)]Gal(b1-4)Glc
# In short: as §1
# [3] = target: Neu5Ac(a2-3)[GalNAc(b1-4)]Gal(b1-4)GlcNAc
# In short: as §1
# [4] = target: Neu5Ac(a2-3)[GalNAc(b1-4)]Gal(b1-4)GlcNAc(b1-3)GalNAc
# In short: as §1
# [5] = target: Neu5Ac(a2-3)[Neu5Ac(a2-6)]GalNAc
# In short: as §1
# Neu5Ac(a2-6)Gal = target: Neu5Ac(a2-6)Gal
# In short: as §1
# [6] = target: Neu5Ac(a2-6)Gal(b1-3)GlcNAc(b1-3)[Gal(b1-4)GlcNAc(b1-6)]Gal(b1-4)Glc
# In short: as §1
# Neu5Ac(a2-6)Gal(b1-4)Glc = target: Neu5Ac(a2-6)Gal(b1-4)Glc
# In short: as §1
# [7] = target: Neu5Ac(a2-6)Gal(b1-4)GlcNAc
# In short: as §1
# [8] = target: Neu5Ac(a2-6)Gal(b1-4)GlcNAc(b1-2)Man
# In short: as §1
# [9] = target: Neu5Ac(a2-6)Gal(b1-4)GlcNAc(b1-2)Man(a1-3)Man(b1-4)GlcNAc(b1-4)GlcNAc
# In short: as §1
# [10] = target: Neu5Ac(a2-6)Gal(b1-4)GlcNAc(b1-2)Man(a1-3)[Gal(b1-4)GlcNAc(b1-2)Man(a1-6)]Man(b1-4)GlcNAc(b1-4)GlcNAc
# In short: as §1
# [11] = target: Neu5Ac(a2-6)Gal(b1-4)GlcNAc(b1-2)Man(a1-3)[GlcNAc(b1-2)Man(a1-6)]Man(b1-4)GlcNAc(b1-4)GlcNAc
# In short: as §1
# [12] = target: Neu5Ac(a2-6)Gal(b1-4)GlcNAc(b1-2)Man(a1-3)[GlcNAc(b1-4)][Neu5Ac(a2-6)Gal(b1-4)GlcNAc(b1-2)Man(a1-6)]Man(b1-4)GlcNAc(b1-4)GlcNAc
# In short: as §1
# [13] = target: Neu5Ac(a2-6)Gal(b1-4)GlcNAc(b1-2)Man(a1-3)[Man(a1-6)]Man(b1-4)GlcNAc(b1-4)GlcNAc
# In short: as §1
# [14] = target: Neu5Ac(a2-6)Gal(b1-4)GlcNAc(b1-2)Man(a1-3)[Neu5Ac(a2-3)Gal(b1-4)GlcNAc(b1-2)Man(a1-6)]Man(b1-4)GlcNAc(b1-4)GlcNAc
# In short: as §1
# [15] = target: Neu5Ac(a2-6)Gal(b1-4)GlcNAc(b1-2)Man(a1-3)[Neu5Ac(a2-6)Gal(b1-4)GlcNAc(b1-2)Man(a1-6)]Man(b1-4)GlcNAc(b1-4)GlcNAc
# In short: as §1
# [16] = target: Neu5Ac(a2-6)Gal(b1-4)GlcNAc(b1-2)Man(a1-3)[Neu5Ac(a2-6)Gal(b1-4)GlcNAc(b1-2)Man(a1-6)]Man(b1-4)GlcNAc(b1-4)[Fuc(a1-6)]GlcNAc
# In short: as §1
# [17] = target: Neu5Ac(a2-6)Gal(b1-4)GlcNAc(b1-2)Man(a1-6)Man(b1-4)GlcNAc(b1-4)GlcNAc
# In short: as §1
# [18] = target: Neu5Ac(a2-6)Gal(b1-4)GlcNAc(b1-2)Man(a1-6)[Gal(b1-4)GlcNAc(b1-2)Man(a1-3)]Man(b1-4)GlcNAc(b1-4)GlcNAc
# In short: as §1
# [19] = target: Neu5Ac(a2-6)Gal(b1-4)GlcNAc(b1-2)Man(a1-6)[GlcNAc(b1-2)Man(a1-3)]Man(b1-4)GlcNAc(b1-4)GlcNAc
# In short: as §1
# [20] = target: Neu5Ac(a2-6)Gal(b1-4)GlcNAc(b1-2)Man(a1-6)[Man(a1-3)]Man(b1-4)GlcNAc(b1-4)GlcNAc
# In short: as §1
# [21] = target: Neu5Ac(a2-6)Gal(b1-4)GlcNAc(b1-2)[Neu5Ac(a2-6)Gal(b1-4)GlcNAc(b1-4)]Man(a1-3)[GlcNAc(b1-4)][Neu5Ac(a2-6)Gal(b1-4)GlcNAc(b1-2)[Neu5Ac(a2-6)Gal(b1-4)GlcNAc(b1-6)]Man(a1-6)]Man(b1-4)GlcNAc(b1-4)GlcNAc
# In short: as §1
# [22] = target: Neu5Ac(a2-6)Gal(b1-4)GlcNAc(b1-2)[Neu5Ac(a2-6)Gal(b1-4)GlcNAc(b1-4)]Man(a1-3)[GlcNAc(b1-4)][Neu5Ac(a2-6)Gal(b1-4)GlcNAc(b1-4)Man(a1-6)]Man(b1-4)GlcNAc(b1-4)GlcNAc
# In short: as §1
# [23] = target: Neu5Ac(a2-6)Gal(b1-4)GlcNAc(b1-2)[Neu5Ac(a2-6)Gal(b1-4)GlcNAc(b1-6)]Man(a1-6)[Neu5Ac(a2-6)Gal(b1-4)GlcNAc(b1-2)Man(a1-3)][GlcNAc(b1-4)]Man(b1-4)GlcNAc(b1-4)GlcNAc
# In short: as §1
# [24] = target: Neu5Ac(a2-6)Gal(b1-4)GlcNAc(b1-3)Gal(b1-3)GlcNAc
# In short: as §1
# [25] = target: Neu5Ac(a2-6)Gal(b1-4)GlcNAc(b1-3)Gal(b1-4)GlcNAc
# In short: as §1
# [26] = target: Neu5Ac(a2-6)Gal(b1-4)GlcNAc(b1-3)Gal(b1-4)GlcNAc(b1-2)Man(a1-3)[Neu5Ac(a2-6)Gal(b1-4)GlcNAc(b1-3)Gal(b1-4)GlcNAc(b1-2)Man(a1-6)]GalNAc
# In short: as §1
# [27] = target: Neu5Ac(a2-6)Gal(b1-4)GlcNAc(b1-3)Gal(b1-4)GlcNAc(b1-3)Gal(b1-4)GlcNAc
# In short: as §1
# [28] = target: Neu5Ac(a2-6)Gal(b1-4)GlcNAc(b1-3)Gal(b1-4)GlcNAc(b1-3)Gal(b1-4)GlcNAc(b1-2)Man(a1-3)[Neu5Ac(a2-6)Gal(b1-4)GlcNAc(b1-3)Gal(b1-4)GlcNAc(b1-3)Gal(b1-4)GlcNAc(b1-2)Man(a1-6)]GalNAc
# In short: as §1
# [29] = target: Neu5Ac(a2-6)Gal(b1-4)GlcNAc(b1-3)Gal(b1-4)GlcNAc(b1-3)GalNAc
# In short: as §1
# [30] = target: Neu5Ac(a2-6)Gal(b1-4)GlcNAc(b1-3)Gal(b1-4)GlcNAc(b1-3)[Neu5Ac(a2-6)Gal(b1-4)GlcNAc(b1-3)Gal(b1-4)GlcNAc(b1-6)]GalNAc
# In short: as §1
# [31] = target: Neu5Ac(a2-6)Gal(b1-4)GlcNAc(b1-3)Gal(b1-4)GlcNAc(b1-6)[Gal(b1-3)]GalNAc
# In short: as §1
# [32] = target: Neu5Ac(a2-6)Gal(b1-4)GlcNAc(b1-3)Gal(b1-4)[Fuc(a1-3)]GlcNAc(b1-3)Gal(b1-4)[Fuc(a1-3)]GlcNAc
# In short: as §1
# [33] = target: Neu5Ac(a2-6)Gal(b1-4)GlcNAc(b1-3)GalNAc
# In short: as §1
# [34] = target: Neu5Ac(a2-6)Gal(b1-4)GlcNAc(b1-3)[Neu5Ac(a2-6)Gal(b1-4)GlcNAc(b1-6)]GalNAc
# In short: as §1
# [35] = target: Neu5Ac(a2-6)Gal(b1-4)GlcNAc(b1-6)GalNAc
# In short: as §1
# [36] = target: Neu5Ac(a2-6)Gal(b1-4)GlcNAc(b1-6)[Gal(b1-3)GlcNAc(b1-3)]Gal(b1-4)Glc
# In short: as §1
binder,measurement,setting,value
B1,glycan array binding signal (z-score),[1],-0.33
same,glycan array binding signal (z-score),[2],-0.382
same,glycan array binding signal (z-score),[3],-0.65
same,glycan array binding signal (z-score),[4],1.35
same,glycan array binding signal (z-score),[5],-0.666
same,glycan array binding signal (z-score),Neu5Ac(a2-6)Gal,-0.231
same,glycan array binding signal (z-score),[6],-0.651
same,glycan array binding signal (z-score),Neu5Ac(a2-6)Gal(b1-4)Glc,-0.274
same,glycan array binding signal (z-score),[7],-0.729
same,glycan array binding signal (z-score),[8],0.078
same,glycan array binding signal (z-score),[9],-0.332
same,glycan array binding signal (z-score),[10],0.077
same,glycan array binding signal (z-score),[11],-0.237
same,glycan array binding signal (z-score),[12],-0.309
same,glycan array binding signal (z-score),[13],0.572
same,glycan array binding signal (z-score),[14],-0.408
same,glycan array binding signal (z-score),[15],0.087
same,glycan array binding signal (z-score),[16],0.527
same,glycan array binding signal (z-score),[17],0.271
same,glycan array binding signal (z-score),[18],-1
same,glycan array binding signal (z-score),[19],-0.23
same,glycan array binding signal (z-score),[20],0.239
same,glycan array binding signal (z-score),[21],-0.516
same,glycan array binding signal (z-score),[22],-0.396
same,glycan array binding signal (z-score),[23],-1.13
same,glycan array binding signal (z-score),[24],1.22
same,glycan array binding signal (z-score),[25],-0.895
same,glycan array binding signal (z-score),[26],0.482
same,glycan array binding signal (z-score),[27],-0.488
same,glycan array binding signal (z-score),[28],2.31
same,glycan array binding signal (z-score),[29],-0.76
same,glycan array binding signal (z-score),[30],1.75
same,glycan array binding signal (z-score),[31],-0.068
same,glycan array binding signal (z-score),[32],0.234
same,glycan array binding signal (z-score),[33],-0.436
same,glycan array binding signal (z-score),[34],0.166
same,glycan array binding signal (z-score),[35],0.439
same,glycan array binding signal (z-score),[36],-0.04

# Source: the supplement of paper PMC8728848
